Laboratory results from PMC8830656.
Results are given in words; binding and its absence hold for the method and conditions named. Binding seen in cells or lysates may run through a third protein. Some results given as binding are weak or reduced against the parent protein; the word gives no strength. Sequences can lack the tags named with a protein.

T1: GPI-AP Gas1 tagged with GFP (yeast) (UniProt P22146)
T1 sequence (chain, GPI anchor (glycolipid)): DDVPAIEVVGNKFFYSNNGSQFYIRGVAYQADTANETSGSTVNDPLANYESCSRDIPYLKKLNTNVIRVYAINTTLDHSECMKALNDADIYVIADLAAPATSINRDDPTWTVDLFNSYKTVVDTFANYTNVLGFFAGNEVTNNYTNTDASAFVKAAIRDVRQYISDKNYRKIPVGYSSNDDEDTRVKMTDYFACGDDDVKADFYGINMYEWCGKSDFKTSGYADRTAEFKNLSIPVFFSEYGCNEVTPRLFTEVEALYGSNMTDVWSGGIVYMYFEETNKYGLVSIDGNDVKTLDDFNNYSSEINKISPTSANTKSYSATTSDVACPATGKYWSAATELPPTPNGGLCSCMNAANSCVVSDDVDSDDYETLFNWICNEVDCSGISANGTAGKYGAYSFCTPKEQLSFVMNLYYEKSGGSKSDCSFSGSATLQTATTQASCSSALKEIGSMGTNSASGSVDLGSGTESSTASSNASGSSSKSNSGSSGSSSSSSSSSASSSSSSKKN


What was measured:
[1] = biological target: T1, GPI-AP Gas1 tagged with GFP (yeast); test: cross-linking + co-IP; extract of wild-type yeast strain incubated with the crosslinker DSP, solubilized with digitonin, Gas1-GFP immunoprecipitated with GFP-Trap, crosslinks cleaved under reducing conditions, immunoblotting
[2] = biological target: T1, GPI-AP Gas1 tagged with GFP (yeast); test: co-IP; extract of wild-type yeast strain without DSP, solubilized with digitonin, Gas1-GFP immunoprecipitated with GFP-Trap, immunoblotting

binding [1] | binding [2] | Binder
no binding |  | Sec24, the major COPII cargo binding isoform (protein, UniProt P40482 1-926) MSHHKKRVYPQAQLQYGQNATPLQQPAQFMPPQDPAAAGMSYGQMGMPPQGAVPSMGQQQFLTPAQEQLHQQIDQATTSMNDMHLHNVPLVDPNAYMQPQVPVQMGTPLQQQQQPMAAPAYGQPSAAMGQNMRPMNQLYPIDLLTELPPPITDLTLPPPPLVIPPERMLVPSELSNASPDYIRSTLNAVPKNSSLLKKSKLPFGLVIRPYQHLYDDIDPPPLNEDGLIVRCRRCRSYMNPFVTFIEQGRRWRCNFCRLANDVPMQMDQSDPNDPKSRYDRNEIKCAVMEYMAPKEYTLRQPPPATYCFLIDVSQSSIKSGLLATTINTLLQNLDSIPNHDERTRISILCVDNAIHYFKIPLDSENNEESADQINMMDIADLEEPFLPRPNSMVVSLKACRQNIETLLTKIPQIFQSNLITNFALGPALKSAYHLIGGVGGKIIVVSGTLPNLGIGKLQRRNESGVVNTSKETAQLLSCQDSFYKNFTIDCSKVQITVDLFLASEDYMDVASLSNLSRFTAGQTHFYPGFSGKNPNDIVKFSTEFAKHISMDFCMETVMRARGSTGLRMSRFYGHFFNRSSDLCAFSTMPRDQSYLFEVNVDESIMADYCYVQVAVLLSLNNSQRRIRIITLAMPTTESLAEVYASADQLAIASFYNSKAVEKALNSSLDDARVLINKSVQDILATYKKEIVVSNTAGGAPLRLCANLRMFPLLMHSLTKHMAFRSGIVPSDHRASALNNLESLPLKYLIKNIYPDVYSLHDMADEAGLPVQTEDGEATGTIVLPQPINATSSLFERYGLYLIDNGNELFLWMGGDAVPALVFDVFGTQDIFDIPIGKQEIPVVENSEFNQRVRNIINQLRNHDDVITYQSLYIVRGASLSEPVNHASAREVATLRLWASSTLVEDKILNNESYREFLQIMKARISK
binds | binds | p24 complex component Emp24 (protein, UniProt P32803 21-203) HNVLLPAYGRRCFFEDLSKGDELSISFQFGDRNPQSSSQLTGDFIIYGPERHEVLKTVRDTSHGEITLSAPYKGHFQYCFLNENTGIETKDVTFNIHGVVYVDLDDPNTNTLDSAVRKLSKLTREVKDEQSYIVIRERTHRNTAESTNDRVKWWSIFQLGVVIANSLFQIYYLRRFFEVTSLV
no binding |  | unrelated cytosolic protein Pgk1 (protein, UniProt P00560 1-416) MSLSSKLSVQDLDLKDKRVFIRVDFNVPLDGKKITSNQRIVAALPTIKYVLEHHPRYVVLASHLGRPNGERNEKYSLAPVAKELQSLLGKDVTFLNDCVGPEVEAAVKASAPGSVILLENLRYHIEEEGSRKVDGQKVKASKEDVQKFRHELSSLADVYINDAFGTAHRAHSSMVGFDLPQRAAGFLLEKELKYFGKALENPTRPFLAILGGAKVADKIQLIDNLLDKVDSIIIGGGMAFTFKKVLENTEIGDSIFDKAGAEIVPKLMEKAKAKGVEVVLPVDFIIADAFSADANTKTVTDKEGIPAGWQGLDNGPESRKLFAATVAKAKTIVWNGPPGVFEFEKFAAGTKALLDEVVKSSAAGNTVIIGGGDTATVAKKYGVTDKISHVSTGGGASLELLEGKELPGVAFLSEKK
